From PMC3760768
Results are given in words; binding and its absence hold for the method and conditions named. Where a sequence is shown, tags or fusion partners need not be part of it.

Amino acid sequences for entries named in this document (tags omitted).
UniProt Q39057: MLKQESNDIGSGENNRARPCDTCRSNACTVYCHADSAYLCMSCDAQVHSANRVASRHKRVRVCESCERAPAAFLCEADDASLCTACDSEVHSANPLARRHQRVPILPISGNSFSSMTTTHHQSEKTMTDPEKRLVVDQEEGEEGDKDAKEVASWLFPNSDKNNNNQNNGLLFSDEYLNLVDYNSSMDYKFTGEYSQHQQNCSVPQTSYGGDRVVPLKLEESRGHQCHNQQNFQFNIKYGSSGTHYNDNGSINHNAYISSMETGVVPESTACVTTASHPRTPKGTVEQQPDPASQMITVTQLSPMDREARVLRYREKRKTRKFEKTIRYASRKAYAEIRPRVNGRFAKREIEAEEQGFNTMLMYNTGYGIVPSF

Biological target: T1, AGL18, full length, fused with GAL4-BD (Arabidopsis) (UniProt Q9M2K8)
T1 sequence: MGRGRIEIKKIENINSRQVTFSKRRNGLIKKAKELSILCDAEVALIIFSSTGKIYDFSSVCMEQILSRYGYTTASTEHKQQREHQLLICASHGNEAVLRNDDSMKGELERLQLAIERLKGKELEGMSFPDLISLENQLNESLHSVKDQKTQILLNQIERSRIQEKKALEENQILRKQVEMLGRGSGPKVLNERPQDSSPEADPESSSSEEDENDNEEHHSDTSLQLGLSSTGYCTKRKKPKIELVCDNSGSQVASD
Experiment: two-hybrid; Matchmaker GAL4 Two-Hybrid System 3 (Clontech), yeast strain AH109; growth on selective media lacking leucine, tryptophan and histidine

Sequence: CONSTANS (CO), full length, fused with GAL4-AD (from UniProt Q39057 1-373)
- binding: no binding
